The text below walks through data of PMC7347597, “INTS10–INTS13–INTS14 form a functional module of Integrator that binds nucleic acids and the cleavage module” (Nature Communications, 2020).

Chains of the proteins cited; added tags and fusions are not shown. A line that says so, or that is headed by a name, gives the form on record, which may keep a tag or linker.
INTS13-INTS14 heterodimer (Homo sapiens), one chain, as listed by the source, chain 2 of 2: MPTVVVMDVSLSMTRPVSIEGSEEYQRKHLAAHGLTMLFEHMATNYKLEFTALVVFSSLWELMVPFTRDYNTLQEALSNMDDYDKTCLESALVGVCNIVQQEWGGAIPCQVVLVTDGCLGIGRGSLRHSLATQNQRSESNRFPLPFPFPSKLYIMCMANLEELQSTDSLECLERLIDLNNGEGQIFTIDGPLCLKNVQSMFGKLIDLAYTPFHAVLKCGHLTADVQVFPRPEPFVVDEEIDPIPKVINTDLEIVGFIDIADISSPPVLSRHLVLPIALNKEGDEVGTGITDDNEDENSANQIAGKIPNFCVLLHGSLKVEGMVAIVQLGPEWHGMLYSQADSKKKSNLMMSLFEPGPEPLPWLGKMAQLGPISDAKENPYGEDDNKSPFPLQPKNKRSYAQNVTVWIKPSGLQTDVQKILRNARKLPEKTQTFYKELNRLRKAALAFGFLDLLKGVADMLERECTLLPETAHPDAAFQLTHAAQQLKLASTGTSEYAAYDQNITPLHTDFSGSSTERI
INTS10-INTS13-INTS14 heterotrimer (Homo sapiens), one chain, as listed by the source, chain 1 of 3: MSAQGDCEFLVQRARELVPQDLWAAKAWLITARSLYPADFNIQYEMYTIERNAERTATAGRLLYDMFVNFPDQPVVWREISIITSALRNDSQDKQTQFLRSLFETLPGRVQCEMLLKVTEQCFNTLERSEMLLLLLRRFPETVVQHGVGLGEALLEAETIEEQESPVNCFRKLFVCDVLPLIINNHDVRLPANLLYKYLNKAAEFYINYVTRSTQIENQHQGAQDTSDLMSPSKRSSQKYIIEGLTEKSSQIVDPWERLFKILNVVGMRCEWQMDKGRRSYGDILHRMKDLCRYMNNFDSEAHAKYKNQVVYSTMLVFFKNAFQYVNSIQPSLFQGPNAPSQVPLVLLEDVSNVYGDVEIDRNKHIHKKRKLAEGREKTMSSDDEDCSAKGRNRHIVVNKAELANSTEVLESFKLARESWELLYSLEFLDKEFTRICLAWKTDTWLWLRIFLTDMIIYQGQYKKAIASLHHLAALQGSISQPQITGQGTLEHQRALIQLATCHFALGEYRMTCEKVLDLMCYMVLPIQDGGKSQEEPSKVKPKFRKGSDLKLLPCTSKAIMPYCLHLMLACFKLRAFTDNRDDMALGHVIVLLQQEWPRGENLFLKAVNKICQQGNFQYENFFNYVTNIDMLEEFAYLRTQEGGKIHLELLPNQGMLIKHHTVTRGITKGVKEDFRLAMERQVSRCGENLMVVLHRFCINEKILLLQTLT
INTS13-INTS14 heterodimer (Homo sapiens), one chain, as listed by the source, chain 1 of 2: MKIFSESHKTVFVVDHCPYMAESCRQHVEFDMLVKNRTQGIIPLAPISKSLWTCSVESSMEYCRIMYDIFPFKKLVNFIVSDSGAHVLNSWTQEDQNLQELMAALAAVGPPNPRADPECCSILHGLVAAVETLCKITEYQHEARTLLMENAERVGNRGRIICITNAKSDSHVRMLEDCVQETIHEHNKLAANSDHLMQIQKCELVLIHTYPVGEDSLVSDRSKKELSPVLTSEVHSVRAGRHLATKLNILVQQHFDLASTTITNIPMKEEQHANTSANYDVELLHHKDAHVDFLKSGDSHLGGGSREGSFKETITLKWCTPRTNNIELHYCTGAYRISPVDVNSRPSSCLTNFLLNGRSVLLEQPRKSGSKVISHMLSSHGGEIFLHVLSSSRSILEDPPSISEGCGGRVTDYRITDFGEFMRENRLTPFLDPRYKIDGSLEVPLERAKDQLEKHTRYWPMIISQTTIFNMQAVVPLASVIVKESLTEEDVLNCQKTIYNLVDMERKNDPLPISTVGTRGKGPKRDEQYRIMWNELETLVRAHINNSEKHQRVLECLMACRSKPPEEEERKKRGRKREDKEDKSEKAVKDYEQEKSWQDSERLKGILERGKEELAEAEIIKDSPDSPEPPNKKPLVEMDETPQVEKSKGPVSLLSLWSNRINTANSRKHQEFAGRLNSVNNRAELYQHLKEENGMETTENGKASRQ

For some assays here: Weaker means in comparison with the reference protein, sequence or condition of that experiment. For at least one entry, the source does not settle the construct or the ends of the probe. For some assays here: The direction of at least one scale is not stated here.

The test system of data set [1] is INTS13-INTS14 heterodimer (Homo sapiens). The data set is described as follows: EMSA. The conditions noted are these: EMSA: 50 mM HEPES pH 7.5, 200 mM NaCl, 2 mM MgCl2, on ice, 2 uM RNA or 1 uM DNA, recombinant protein.
In data set [2] the test system is INTS10-INTS13-INTS14 heterotrimer (Homo sapiens). The data set is described as follows: EMSA. The note with it: EMSA: 50 mM HEPES pH 7.5, 200 mM NaCl, 2 mM MgCl2, on ice, 2 uM RNA or 1 uM DNA, recombinant protein.
In data set [3] the test system is INTS13-INTS14 heterodimer (Homo sapiens). The data set is described as follows: fluorescence polarization. The note with it: low salt (no additional NaCl); FP: 10 nM RNA, 10 mM HEPES pH 7.5, 5% glycerol, 2 mM MgCl2, 50 mM NaCl or none added, temperature not stated; recombinant …; label: 5'-6-FAM.
Data set [4] deals with INTS10-INTS13-INTS14 heterotrimer (Homo sapiens). The data set is described as follows: fluorescence polarization. The conditions noted are these: low salt (no additional NaCl); FP: 10 nM RNA, 10 mM HEPES pH 7.5, 5% glycerol, 2 mM MgCl2, 50 mM NaCl or none added, temperature not stated; recombinant …; label: 5'-6-FAM.
Setting [5] is: letters put together from the description.

Consider “ACTTTCTGGAGTTTCAAAAACAGACTGTACGCCA (double strand) [U1 3'-box dsDNA]”, for which the binding result in data set [1] and in data set [2] was “binds more weakly” throughout.
Turning to “ACTTTCTGGAGTTTCAAAAACAGACTGTACGCCA [U1 3'-box ssDNA]”, the binding result in data set [1] (single-stranded DNA) and in data set [2] (single-stranded DNA) was “binds more weakly” each time.
Turning to “CUGGAGUUUCAAAAACAGACUG [U1 3'-box ssRNA (FP)]”, the results for the binding signal (fold higher affinity than standard salt) in data set [3] and in data set [4] were 7 and 18, respectively.
Take “GGACUUUCUGGAGUUUCAAAAACAGACUGUACGCCAGCCGG [U1 3'-box ssRNA (EMSA)]”: the binding result in data set [1] (setting [5]) and in data set [2] (setting [5]) was “binds” each time.
